Assay results from patent US7084176B2, “N-arylphenylacetamide derivatives and medicinal compositions containing the same” (Dainippon Pharmaceutical Co., Ltd., priority 2001, dated 2006).
Some results were stated once for a whole list of compounds, not compound by compound. At least one structure is not confirmed: it was looked up by name or label, or the drawing left a doubt.

System: male Std:ddY mice
Assay: Phenyl-1,4-benzoquinone-induced writhing test
Type: in vivo
Settings: oral administration, writhing inhibition, logit analysis
Description: Phenyl-1,4-benzoquinone-induced Writhing Test Referring to the method disclosed in Proc. Soc. exp. Biol. […] For oral administration, a test compound was suspended in 0.5% tragacanth solution. […] In the control group, a physiological saline solution containing 10% Tween 80 and 10% ethanol was administered in the case of subcutaneous administration, or a 0.5% tragacanth solution was administered in the case of oral administration. The number of writhing movements in the test compound-treated group was compared with that in the control group, and the writhing inhibitory percentage was calculated therefrom and considered as an analgesic effect. Writhing inhibitory percentage (%)=[(A−B)/A]×100 In the above equation, A means the number of writhing movements in the control group, and B means the number of writhing movements in the test compound-treated group. From the writhing inhibitory percentage of the test compound, ED50 (mg/kg) was calculated by logit analysis.

SMILES	ED50 (mg/kg po)
COc1cc(CC(=O)Nc2cc(-c3ccccc3)cc(F)c2OC)ccc1OCCN [Example 171, 4-(2-aminoethoxy)-N-[(2-methoxy-3-fluoro-5-phenyl)phenyl]-3-methoxyphenylacetamide]	not more than 1 mg/kg
COc1cc(CC(=O)Nc2cccc(C3CCC(C(C)(C)C)CC3)c2)ccc1OCCN (stereo not drawn) [Example 62, 4-(2-aminoethoxy)-N-[3-(4-tert-butylcyclohexan-1-yl)phenyl]-3-methoxyphenylacetamide]	not more than 1 mg/kg
COc1cc(CC(=O)Nc2cccc(-c3ccccc3)c2)ccc1OCCN.Cl [Example 63, 4-(2-aminoethoxy)-3-methoxy-N-(3-phenylphenyl)phenylacetamide]	not more than 1 mg/kg
COc1cc(CC(=O)Nc2ccc(OC(F)(F)F)c(-c3ccccc3)c2)ccc1OCCN [Example 179, 4-(2-aminoethoxy)-3-methoxy-N-[(3-phenyl-4-trifluoromethoxy)-phenyl]phenylacetamide]	not more than 1 mg/kg
COc1cc(CC(=O)Nc2ccc(C)c(-c3ccccc3)c2)ccc1OCCN [Example 173, 4-(2-aminoethoxy)-3-methoxy-N-[(3-phenyl-4-methyl)phenyl]-phenylacetamide]	not more than 1 mg/kg

Same assay, conditions: subcutaneous administration, writhing inhibition, logit analysis

SMILES	ED50 (mg/kg sc)
COc1cc(CC(=O)Nc2cccc(C3CCCCC3)c2)ccc1O [Example 1, N-(3-cyclohexylphenyl)-4-hydroxy-3-methoxyphenylacetamide]	not more than 0.1 mg/kg
COc1cc(CC(=O)Nc2cccc(-c3ccccc3)c2)ccc1OCCN.Cl [Example 63, 4-(2-aminoethoxy)-3-methoxy-N-(3-phenylphenyl)phenylacetamide]	not more than 0.1 mg/kg
COc1cc(CC(=O)Nc2cccc(C#Cc3ccccc3)c2)ccc1O [Example 36, 4-hydroxy-3-methoxy-N-[3-(2-phenylethynyl)phenyl]phenylacetamide]	not more than 0.1 mg/kg
COc1cc(CC(=O)Nc2ccc3c(c2)C(=O)C(Cc2ccccc2)CC3)ccc1O (stereo not drawn) [Example 249, 4-hydroxy-3-methoxy-N-[1-oxo-2-phenylmethyl-1,2,3,4-tetrahydronaphthalen-7-yl]phenylacetamide]	not more than 0.1 mg/kg
